# Legend:
# [1] = system: Staphylococcus aureus (MB5957); assay: Microbroth dilution MIC, Staphylococcus aureus MB5957; format: cell-based; settings: cation-adjusted Mueller Hinton broth, no visible growth, read-out: MIC-100
# Description: (§1) The Staphylococcus aureus strains used were obtained from the Merck Culture Collection, and are identified as MB2865 and MB5957. […] Selected isolates were subcultured onto either […] Isolates were subcultured twice before assay. […] Plates were read to no growth.
# [2] = system: Staphylococcus aureus (MB2865); assay: Microbroth dilution MIC, Staphylococcus aureus MB2865; format: cell-based; settings: cation-adjusted Mueller Hinton broth, no visible growth, read-out: MIC-100
# Description: as §1
# [3] = system: Escherichia coli envA1 tolC (MB5746); assay: microbe, parasite or virus in culture; settings: read-out: MIC-100
smiles,measurement,setting,value
O=C(O)c1cn(C2CC2)c2cc(N3CCNCC3)c(F)cc2c1=O [Ciprofloxacin],MIC,[1],1 µg/mL
same,MIC,[2],0.12 µg/mL
same,MIC,[3],< 0.015 µg/mL

# Reference: US9126983B2, “Extracts from kibdelos porangium as antibacterial agents” (Merck Sharp & Dohme Corp., priority 2009, dated 2015)
